Some of the results follow. Residues, ends and D or L forms follow the SMILES beside them. *: point of attachment. Cbz = O=C(OCc1ccccc1)*
Legend:
Assay in all cases: log2 fold change, soluble protein after heating vs DMSO (PISA); higher = thermal stabilisation; K562 cells, 10 uM, 30 min; active = over 0.2 and 3.5 SD of the protein, either way, in both replicates (recomputed)
[1] = molecular target: ZNF787 (UniProt Q6DD87)
Procedure, shortened: (§1)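 For each measurement, 10 μM compound was applied for 30 min to K562 cells at 2×10^6 cells/mL. Aliquots were heated for 3 min across 48°C-58°C, pooled, and extracted in PBS with 0.5% NP-40 at 4°C; the supernatant after 21,000xg for 90 min was soluble protein. This was quantified by TMTpro 16plex LC-MS/MS with channel sums equalised, and thermal stability was reported relative to control samples from duplicates, on a log2 fold-change scale.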

Protein sequences, listed by entry. Tags and fused reporters are not part of them. Lines headed by an entry give the natural chain unless they say otherwise; changes in a name come on top.
UniProt Q6DD87: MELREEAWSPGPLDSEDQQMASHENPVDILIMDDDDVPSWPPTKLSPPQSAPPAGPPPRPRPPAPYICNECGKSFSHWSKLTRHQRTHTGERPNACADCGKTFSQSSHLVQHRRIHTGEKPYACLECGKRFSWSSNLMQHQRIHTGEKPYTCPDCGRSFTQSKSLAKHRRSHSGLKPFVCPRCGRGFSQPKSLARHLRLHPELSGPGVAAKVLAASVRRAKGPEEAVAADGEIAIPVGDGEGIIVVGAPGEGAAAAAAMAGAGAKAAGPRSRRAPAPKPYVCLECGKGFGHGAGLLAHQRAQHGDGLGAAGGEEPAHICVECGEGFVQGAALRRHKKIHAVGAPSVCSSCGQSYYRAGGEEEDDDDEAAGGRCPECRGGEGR
UniProt Q96NB3: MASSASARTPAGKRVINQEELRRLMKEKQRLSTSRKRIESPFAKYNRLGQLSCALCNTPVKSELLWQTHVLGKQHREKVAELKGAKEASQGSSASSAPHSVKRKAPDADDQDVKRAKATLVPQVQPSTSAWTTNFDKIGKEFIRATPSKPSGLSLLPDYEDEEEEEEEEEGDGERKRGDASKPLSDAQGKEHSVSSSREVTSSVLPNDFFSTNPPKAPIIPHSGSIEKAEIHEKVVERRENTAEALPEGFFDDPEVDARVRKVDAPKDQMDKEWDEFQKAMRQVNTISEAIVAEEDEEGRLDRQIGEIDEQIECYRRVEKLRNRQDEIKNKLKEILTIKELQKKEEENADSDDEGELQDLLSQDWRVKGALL
UniProt Q6ZMS4: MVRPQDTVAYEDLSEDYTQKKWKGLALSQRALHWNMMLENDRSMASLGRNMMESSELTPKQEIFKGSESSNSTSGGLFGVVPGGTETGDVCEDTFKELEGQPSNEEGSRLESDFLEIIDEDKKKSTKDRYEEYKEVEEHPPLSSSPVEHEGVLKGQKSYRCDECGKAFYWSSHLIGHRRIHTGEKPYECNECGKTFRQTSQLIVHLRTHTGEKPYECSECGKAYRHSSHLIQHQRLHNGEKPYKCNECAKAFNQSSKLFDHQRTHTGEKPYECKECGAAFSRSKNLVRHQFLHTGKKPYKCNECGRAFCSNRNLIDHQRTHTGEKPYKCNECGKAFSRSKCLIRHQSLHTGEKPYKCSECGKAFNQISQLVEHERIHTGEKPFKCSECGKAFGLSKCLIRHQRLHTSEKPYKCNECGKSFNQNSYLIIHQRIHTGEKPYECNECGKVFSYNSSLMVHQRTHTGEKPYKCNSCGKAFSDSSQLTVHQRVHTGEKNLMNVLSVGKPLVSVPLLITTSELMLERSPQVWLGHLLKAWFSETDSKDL
UniProt Q9UHR6: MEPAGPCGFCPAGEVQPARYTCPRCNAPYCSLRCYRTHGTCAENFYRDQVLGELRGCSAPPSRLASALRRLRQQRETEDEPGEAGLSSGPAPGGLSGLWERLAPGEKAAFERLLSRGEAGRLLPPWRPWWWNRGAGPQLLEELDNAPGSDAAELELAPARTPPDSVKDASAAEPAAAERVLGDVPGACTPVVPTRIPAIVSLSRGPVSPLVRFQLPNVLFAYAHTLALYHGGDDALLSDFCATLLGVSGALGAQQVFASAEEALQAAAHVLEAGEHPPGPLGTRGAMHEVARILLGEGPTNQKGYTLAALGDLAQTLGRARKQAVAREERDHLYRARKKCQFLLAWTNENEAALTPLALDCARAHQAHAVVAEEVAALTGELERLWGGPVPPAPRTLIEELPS
UniProt Q15649: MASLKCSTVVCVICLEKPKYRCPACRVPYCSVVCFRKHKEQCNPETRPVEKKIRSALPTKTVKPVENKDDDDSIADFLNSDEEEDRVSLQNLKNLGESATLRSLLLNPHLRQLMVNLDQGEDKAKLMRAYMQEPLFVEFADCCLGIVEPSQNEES
UniProt Q9NWK9: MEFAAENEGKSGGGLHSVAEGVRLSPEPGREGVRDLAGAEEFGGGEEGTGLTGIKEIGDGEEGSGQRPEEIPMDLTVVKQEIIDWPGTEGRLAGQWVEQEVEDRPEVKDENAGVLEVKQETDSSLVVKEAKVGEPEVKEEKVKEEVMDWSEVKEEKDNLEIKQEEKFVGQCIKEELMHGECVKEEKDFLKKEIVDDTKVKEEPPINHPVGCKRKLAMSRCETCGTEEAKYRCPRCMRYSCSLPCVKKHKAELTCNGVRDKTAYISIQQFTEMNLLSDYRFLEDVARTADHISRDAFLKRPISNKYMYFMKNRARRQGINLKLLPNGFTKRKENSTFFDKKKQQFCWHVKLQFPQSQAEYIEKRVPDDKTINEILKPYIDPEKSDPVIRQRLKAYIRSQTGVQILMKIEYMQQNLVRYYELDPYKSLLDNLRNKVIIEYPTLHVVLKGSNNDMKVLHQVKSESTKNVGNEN
UniProt Q9P1U0, whole entry, looked up: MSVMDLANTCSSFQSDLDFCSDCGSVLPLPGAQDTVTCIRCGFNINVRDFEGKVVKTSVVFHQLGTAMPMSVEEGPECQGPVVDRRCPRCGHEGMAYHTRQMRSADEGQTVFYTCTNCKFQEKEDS
UniProt O43257, whole entry, looked up: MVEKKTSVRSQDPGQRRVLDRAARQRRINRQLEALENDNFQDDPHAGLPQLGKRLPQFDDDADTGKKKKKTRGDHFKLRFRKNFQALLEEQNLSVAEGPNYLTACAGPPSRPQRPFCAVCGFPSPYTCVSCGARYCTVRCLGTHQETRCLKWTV
UniProt Q9P2E3: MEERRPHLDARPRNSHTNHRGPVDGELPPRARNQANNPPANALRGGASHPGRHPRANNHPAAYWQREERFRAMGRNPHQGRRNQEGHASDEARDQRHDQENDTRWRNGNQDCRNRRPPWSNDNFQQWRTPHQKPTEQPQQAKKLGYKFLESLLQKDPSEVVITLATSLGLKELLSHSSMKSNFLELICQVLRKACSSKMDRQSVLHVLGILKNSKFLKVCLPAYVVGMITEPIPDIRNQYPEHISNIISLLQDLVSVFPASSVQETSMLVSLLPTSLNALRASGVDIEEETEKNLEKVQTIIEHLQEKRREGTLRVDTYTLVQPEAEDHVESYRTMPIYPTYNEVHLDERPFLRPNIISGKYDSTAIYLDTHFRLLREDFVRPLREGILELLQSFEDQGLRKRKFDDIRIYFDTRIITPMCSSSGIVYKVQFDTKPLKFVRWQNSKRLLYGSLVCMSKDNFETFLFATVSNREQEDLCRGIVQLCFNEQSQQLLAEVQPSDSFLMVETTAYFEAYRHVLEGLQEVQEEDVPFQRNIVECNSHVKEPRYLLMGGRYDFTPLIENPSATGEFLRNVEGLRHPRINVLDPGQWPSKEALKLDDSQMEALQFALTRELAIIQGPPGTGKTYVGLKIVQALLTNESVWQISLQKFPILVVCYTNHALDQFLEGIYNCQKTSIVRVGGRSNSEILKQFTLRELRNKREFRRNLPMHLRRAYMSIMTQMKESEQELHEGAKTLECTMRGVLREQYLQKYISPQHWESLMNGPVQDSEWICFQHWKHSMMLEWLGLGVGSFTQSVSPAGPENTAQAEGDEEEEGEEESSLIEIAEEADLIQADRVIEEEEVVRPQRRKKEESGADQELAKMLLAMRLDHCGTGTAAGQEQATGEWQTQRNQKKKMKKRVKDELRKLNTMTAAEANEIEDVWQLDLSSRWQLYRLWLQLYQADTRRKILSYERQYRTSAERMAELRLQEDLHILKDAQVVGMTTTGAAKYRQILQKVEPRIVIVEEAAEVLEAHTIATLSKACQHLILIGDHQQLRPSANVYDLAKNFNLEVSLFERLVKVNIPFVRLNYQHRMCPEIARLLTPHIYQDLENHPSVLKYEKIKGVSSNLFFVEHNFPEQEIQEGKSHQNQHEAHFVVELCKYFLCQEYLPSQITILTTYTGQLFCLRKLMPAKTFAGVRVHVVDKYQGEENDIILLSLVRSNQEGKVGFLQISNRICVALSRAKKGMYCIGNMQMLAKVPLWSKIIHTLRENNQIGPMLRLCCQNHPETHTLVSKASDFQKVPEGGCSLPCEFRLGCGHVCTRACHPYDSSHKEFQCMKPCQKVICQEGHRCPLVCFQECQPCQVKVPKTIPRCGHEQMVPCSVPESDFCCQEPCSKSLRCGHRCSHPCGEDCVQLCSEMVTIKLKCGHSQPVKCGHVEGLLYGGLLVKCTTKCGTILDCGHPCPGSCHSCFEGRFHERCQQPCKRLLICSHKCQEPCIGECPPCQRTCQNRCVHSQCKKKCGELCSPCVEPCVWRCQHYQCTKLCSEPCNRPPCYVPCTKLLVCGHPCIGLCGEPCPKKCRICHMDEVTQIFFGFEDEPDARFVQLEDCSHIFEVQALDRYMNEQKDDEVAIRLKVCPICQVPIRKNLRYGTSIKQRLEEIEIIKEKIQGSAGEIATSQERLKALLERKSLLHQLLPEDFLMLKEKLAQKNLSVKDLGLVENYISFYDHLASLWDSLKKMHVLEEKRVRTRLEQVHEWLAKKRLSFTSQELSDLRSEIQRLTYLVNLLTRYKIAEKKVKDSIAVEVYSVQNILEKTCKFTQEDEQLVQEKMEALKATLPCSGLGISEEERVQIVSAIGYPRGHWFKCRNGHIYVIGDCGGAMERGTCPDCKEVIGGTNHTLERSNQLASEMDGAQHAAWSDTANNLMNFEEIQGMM

[2] = molecular target: ZNF830 (UniProt Q96NB3)
Procedure, shortened: as §1

[3] = molecular target: ZNF852 (UniProt Q6ZMS4)
Procedure, shortened: as §1

[4] = molecular target: ZNHIT2 (UniProt Q9UHR6)
Procedure, shortened: as §1

[5] = molecular target: ZNHIT3 (UniProt Q15649)
Procedure, shortened: as §1

[6] = molecular target: ZNHIT6 (UniProt Q9NWK9)
Procedure, shortened: as §1

[7] = molecular target: ZNRD1 (UniProt Q9P1U0)
Procedure, shortened: as §1

[8] = molecular target: ZNHIT1 (UniProt O43257)
Procedure, shortened: as §1

[9] = molecular target: ZNFX1 (UniProt Q9P2E3)
Procedure, shortened: as §1

Measured: log2 fold change

CCCS(=O)(=O)Nc1ccc(F)c(C(=O)c2c[nH]c3ncc(Cl)cc23)c1F
inactive: [1] -0.022 | [2] 0.068 | [3] -0.121 | [4] 0.091 | [5] -0.123 | [6] 0.001 | [7] 0.014

Cc1ccc(C(=O)N(CCCN)[C@@H](c2nc3cc(Cl)ccc3c(=O)n2Cc2ccccc2)C(C)C)cc1 [ispinesib]
inactive: [1] -0.058 | [2] 0.018 | [3] -0.158 | [4] -0.182 | [5] -0.325 | [7] 0.065

CC[C@@H]1C(=O)N(C)c2cnc(Nc3ccc(C(=O)N[C@H]4CC[C@H](N5CCN(CC6CC6)CC5)CC4)cc3OC)nc2N1C(C)C [volasertib]
inactive: [1] 0.124 | [2] 0.016 | [3] 0.087 | [4] -0.24 | [5] -0.023 | [6] 0.051 | [7] 0.146

O=C1NC(=O)/C(=C\c2ccc3nccnc3c2)S1
inactive: [1] 0 | [2] 0.028 | [8] -0.109 | [5] 0.074 | [6] 0.026 | [7] -0.105

COc1cc(C(=O)O)ccc1NC(=O)[C@@H]1N[C@@H](CC(C)(C)C)[C@](C#N)(c2ccc(Cl)cc2F)[C@H]1c1cccc(Cl)c1F [idasanutlin]
inactive: [1] 0.164 | [2] -0.019 | [8] 0.007 | [5] -0.01 | [6] 0.08 | [7] 0.076

CC(=O)c1cnc2ccc(-c3cc(Cl)c(O)c(Cl)c3)nc2c1N[C@H]1CC[C@H](CN(C)C)CC1
inactive: [1] 0.116 | [2] -0.029 | [8] -0.04 | [5] 0.069 | [6] -0.017 | [7] 0.076

CCCS(=O)(=O)Nc1ccc(F)c(C(=O)c2c[nH]c3ncc(-c4ccc(Cl)cc4)cc23)c1F [vemurafenib]
inactive: [1] -0.056 | [2] 0.022 | [9] -0.145 | [4] 0.03 | [5] -0.022 | [6] 0.276 | [7] -0.196

COC(=O)[C@H](CCSC)NC(=O)c1ccc(NC[C@@H](N)CS)cc1-c1ccccc1
inactive: [1] 0.066 | [2] 0.04 | [9] 0.01 | [4] -0.155 | [5] 0.099 | [6] 0.077 | [7] -0.157

C/C(=N\NC(=O)c1cccc(S(=O)(=O)N2CCOCC2)c1)c1cc(Cl)ccc1O
inactive: [1] -0.118 | [2] 0.048 | [8] -0.164 | [5] 0.026 | [6] -0.102 | [7] -0.157

COc1cc2nc(-c3cc(F)ccc3O)nc(N[C@@H]3CNC[C@H]3C(C)(C)O)c2cc1OC
inactive: [1] 0.007 | [2] -0.08 | [3] -0.108 | [4] 0.34 | [5] 0.007 | [6] 0.03 | [7] 0.192

Cn1cncc1[C@@](N)(c1ccc(Cl)cc1)c1ccc2c(c1)c(-c1cccc(Cl)c1)cc(=O)n2C [tipifarnib]
inactive: [1] 0.063 | [2] -0.02 | [3] 0.033 | [4] 0.016 | [5] 0.072 | [6] -0.105 | [7] 0.005

NCC(=O)Nc1ccc(-n2nc(C(F)(F)F)cc2-c2ccc3c(ccc4ccccc43)c2)cc1
inactive: [1] 0.062 | [2] 0.063 | [9] -0.162 | [4] -0.18 | [5] 0.066 | [6] 0.134 | [7] 0.043

CNC(=O)c1ccccc1Nc1nc(Nc2ccc(N3CCOCC3)cc2OC)ncc1Cl
inactive: [1] 0.001 | [2] -0.069 | [3] 0.064 | [8] -0.311 | [5] -0.021 | [6] 0.024 | [7] 0.057

Cn1cc(-c2ccc3nnc(C(F)(F)c4ccc5ncccc5c4)n3n2)cn1
inactive: [1] -0.023 | [2] -0.002 | [3] 0.017 | [4] -0.017 | [5] 0.064 | [7] -0.014

CC(C)(C)Cn1c(N)nc2ccc(-c3[nH]c(C(C)(C)C)nc3-c3ccc(F)cc3)nc21 [ralimetinib]
inactive: [1] 0.142 | [2] -0.047 | [3] -0.136 | [4] 0.176 | [5] -0.141 | [7] 0.027

Cc1ccc(Sc2cncc3sc(C(N)=O)cc23)cc1
inactive: [1] -0.035 | [2] 0.017 | [3] -0.193 | [4] -0.028 | [5] -0.035 | [6] -0.07 | [7] 0.175

CC(C)C[C@@H](C=O)NC(=O)[C@H](CC(C)C)NC(=O)[C@H](CC(C)C)NC(=O)OCc1ccccc1 (Cbz-Leu-Leu-Leu-aldehyde)
inactive: [1] 0.116 | [2] -0.015 | [3] 0.239 | [4] 0.192 | [5] 0.215 | [7] 0.062

NC(=O)c1cnc(N[C@@H]2CCCC[C@@H]2N)nc1Nc1cccc(-n2nccn2)c1
inactive: [1] 0 | [2] 0.036 | [8] -0.151 | [5] 0.063 | [6] 0.004 | [7] 0.103

CC(C)c1cnn2c(NCc3ccccc3)cc(NCCCCCCN)nc12
inactive: [1] 0.06 | [2] 0.06 | [3] -0.01 | [8] -0.123 | [5] 0.077 | [6] 0.078 | [7] 0.12

CNC(=O)c1ccc(Nc2ncc(C(F)(F)F)c(NCc3nccnc3N(C)S(C)(=O)=O)n2)cc1 [defactinib]
inactive: [1] 0.193 | [2] -0.009 | [9] 0.334 | [4] 0.133 | [5] -0.006 | [6] -0.348 | [7] 0.075

O=C1c2ccccc2-c2n[nH]c3cccc1c23
inactive: [1] 0 | [2] 0.014 | [8] -0.111 | [5] -0.104 | [6] -0.208 | [7] -0.189

O=C1NC(=NCc2cccs2)S/C1=C\c1ccc2ncccc2c1
inactive: [1] -0.174 | [2] -0.031 | [8] 0.185 | [5] 0.002 | [6] 0.144 | [7] -0.179

CN(CCOc1ccc(C[C@@H]2SC(=O)NC2=O)cc1)c1ccccn1 (racemic) [rosiglitazone]
inactive: [1] -0.085 | [2] -0.01 | [8] 0.081 | [5] -0.03 | [6] -0.038 | [7] -0.22

C=CC(=O)N1CCC[C@@H](n2nc(-c3ccc(Oc4ccccc4)cc3)c3c(N)ncnc32)C1 [ibrutinib]
inactive: [1] 0.07 | [2] 0.021 | [8] -0.001 | [5] -0.022 | [6] -0.14 | [7] -0.098

CCN(CCCOc1ccc2c(Nc3cc(CC(=O)Nc4cccc(F)c4)[nH]n3)ncnc2c1)CCOP(=O)(O)O [barasertib]
inactive: [1] -0.083 | [2] -0.003 | [8] -0.064 | [5] 0.019 | [6] 0.075 | [7] -0.358

Oc1cc(-c2nc(-c3ccccc3)[nH]c2-c2ccncc2)ccc1Cl
inactive: [1] 0.022 | [2] -0.019 | [3] -0.134 | [4] -0.049 | [5] -0.252 | [7] -0.222

CS(=O)(=O)CCNCc1ccc(-c2ccc3ncnc(Nc4ccc(OCc5cccc(F)c5)c(Cl)c4)c3c2)o1 [lapatinib]
inactive: [1] 0.024 | [2] 0.087 | [3] 0.009 | [4] 0.085 | [5] -0.047 | [6] -0.04 | [7] -0.014

Cc1ccc(NC(=O)c2cccc(N(C)C)c2)cc1NC(=O)c1ccc(O)cc1
inactive: [1] -0.003 | [2] 0.011 | [3] 0.139 | [4] 0.054 | [5] 0.008 | [7] 0.033

CCN(CC)Cc1ccc2cc(COC(=O)Nc3ccc(C(=O)NO)cc3)ccc2c1 [givinostat]
inactive: [1] 0.047 | [2] -0.031 | [3] 0.02 | [8] 0.127 | [5] -0.031 | [6] 0.071 | [7] 0.013

Among those listed so far, 4 have an aryl methoxy group.
CC[C@@H]1C(=O)N(C)c2cnc(Nc3ccc(C(=O)N[C@H]4CC[C@H](N5CCN(CC6CC6)CC5)CC4)cc3OC)nc2N1C(C)C [volasertib]
inactive: [1] 0.124 | [2] 0.016 | [3] 0.087 | [4] -0.24 | [5] -0.023 | [6] 0.051 | [7] 0.146

COc1cc(C(=O)O)ccc1NC(=O)[C@@H]1N[C@@H](CC(C)(C)C)[C@](C#N)(c2ccc(Cl)cc2F)[C@H]1c1cccc(Cl)c1F [idasanutlin]
inactive: [1] 0.164 | [2] -0.019 | [8] 0.007 | [5] -0.01 | [6] 0.08 | [7] 0.076

COc1cc2nc(-c3cc(F)ccc3O)nc(N[C@@H]3CNC[C@H]3C(C)(C)O)c2cc1OC
inactive: [1] 0.007 | [2] -0.08 | [3] -0.108 | [4] 0.34 | [5] 0.007 | [6] 0.03 | [7] 0.192

CNC(=O)c1ccccc1Nc1nc(Nc2ccc(N3CCOCC3)cc2OC)ncc1Cl
inactive: [1] 0.001 | [2] -0.069 | [3] 0.064 | [8] -0.311 | [5] -0.021 | [6] 0.024 | [7] 0.057

(continued)

CN(C)CC(=O)Nc1ccc2[nH]c(=O)c3ccccc3c2c1
inactive: [1] -0.075 | [2] -0.067 | [9] -0.044 | [4] 0.155 | [5] -0.089 | [6] 0.117 | [7] 0.033
